The supplement of paper PMC10849652
The other results are listed elsewhere or left out.

By UniProt entry, the sequences of proteins in these tests, tags left out. Where a name states a change or a piece, a line headed by the entry shows the natural chain unless it says otherwise.
UniProt Q9HB09: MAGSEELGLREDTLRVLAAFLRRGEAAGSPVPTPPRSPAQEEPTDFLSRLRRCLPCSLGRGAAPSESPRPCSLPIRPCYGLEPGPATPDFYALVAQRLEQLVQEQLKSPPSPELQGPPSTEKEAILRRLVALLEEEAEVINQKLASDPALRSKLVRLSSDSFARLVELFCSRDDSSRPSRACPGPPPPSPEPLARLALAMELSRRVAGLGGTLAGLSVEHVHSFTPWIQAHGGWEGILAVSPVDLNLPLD
UniProt O95817, whole entry, looked up: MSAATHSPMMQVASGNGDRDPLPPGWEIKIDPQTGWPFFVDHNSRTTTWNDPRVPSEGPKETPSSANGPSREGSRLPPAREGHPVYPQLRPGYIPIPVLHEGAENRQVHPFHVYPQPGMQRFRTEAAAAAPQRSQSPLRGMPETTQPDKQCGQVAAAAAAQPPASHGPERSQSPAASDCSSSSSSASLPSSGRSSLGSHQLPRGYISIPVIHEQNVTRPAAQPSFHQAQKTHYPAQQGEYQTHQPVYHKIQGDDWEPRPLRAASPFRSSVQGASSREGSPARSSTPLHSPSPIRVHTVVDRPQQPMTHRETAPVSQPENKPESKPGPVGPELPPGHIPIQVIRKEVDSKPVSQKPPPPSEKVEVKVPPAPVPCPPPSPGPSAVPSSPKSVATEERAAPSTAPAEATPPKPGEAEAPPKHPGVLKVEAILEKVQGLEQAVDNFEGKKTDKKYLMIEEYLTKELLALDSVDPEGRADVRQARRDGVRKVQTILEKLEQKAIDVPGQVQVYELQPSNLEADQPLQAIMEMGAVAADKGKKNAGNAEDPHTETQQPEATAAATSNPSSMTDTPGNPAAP
UniProt P51572: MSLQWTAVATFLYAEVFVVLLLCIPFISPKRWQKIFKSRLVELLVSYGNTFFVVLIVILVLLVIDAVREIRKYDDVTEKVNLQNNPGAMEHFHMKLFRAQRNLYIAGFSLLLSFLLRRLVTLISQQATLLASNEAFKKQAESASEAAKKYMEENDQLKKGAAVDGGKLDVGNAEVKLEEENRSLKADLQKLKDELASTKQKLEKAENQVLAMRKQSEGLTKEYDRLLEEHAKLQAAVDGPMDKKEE
UniProt P25440, whole entry, looked up: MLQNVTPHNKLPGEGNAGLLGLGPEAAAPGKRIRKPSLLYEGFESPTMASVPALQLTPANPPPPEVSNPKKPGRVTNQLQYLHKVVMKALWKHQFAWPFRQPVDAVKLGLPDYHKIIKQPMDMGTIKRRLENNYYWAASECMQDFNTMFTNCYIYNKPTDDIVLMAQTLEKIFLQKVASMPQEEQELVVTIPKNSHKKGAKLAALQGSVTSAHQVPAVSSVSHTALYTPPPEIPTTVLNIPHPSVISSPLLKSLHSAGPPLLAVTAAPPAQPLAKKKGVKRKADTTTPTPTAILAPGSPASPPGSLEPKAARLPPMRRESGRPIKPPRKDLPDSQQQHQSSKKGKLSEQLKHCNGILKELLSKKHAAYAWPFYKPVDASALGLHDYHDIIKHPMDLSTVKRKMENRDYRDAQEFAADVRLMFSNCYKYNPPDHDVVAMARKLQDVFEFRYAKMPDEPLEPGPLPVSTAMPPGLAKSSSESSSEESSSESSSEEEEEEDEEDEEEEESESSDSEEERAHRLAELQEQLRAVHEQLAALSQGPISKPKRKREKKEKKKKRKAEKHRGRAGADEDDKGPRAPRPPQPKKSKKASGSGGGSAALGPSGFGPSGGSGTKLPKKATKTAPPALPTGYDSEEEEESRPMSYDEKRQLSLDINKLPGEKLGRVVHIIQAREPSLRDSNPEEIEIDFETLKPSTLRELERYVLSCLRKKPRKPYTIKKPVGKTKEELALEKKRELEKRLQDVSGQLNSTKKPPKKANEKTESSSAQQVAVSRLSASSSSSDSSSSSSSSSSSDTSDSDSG
UniProt Q9Y276: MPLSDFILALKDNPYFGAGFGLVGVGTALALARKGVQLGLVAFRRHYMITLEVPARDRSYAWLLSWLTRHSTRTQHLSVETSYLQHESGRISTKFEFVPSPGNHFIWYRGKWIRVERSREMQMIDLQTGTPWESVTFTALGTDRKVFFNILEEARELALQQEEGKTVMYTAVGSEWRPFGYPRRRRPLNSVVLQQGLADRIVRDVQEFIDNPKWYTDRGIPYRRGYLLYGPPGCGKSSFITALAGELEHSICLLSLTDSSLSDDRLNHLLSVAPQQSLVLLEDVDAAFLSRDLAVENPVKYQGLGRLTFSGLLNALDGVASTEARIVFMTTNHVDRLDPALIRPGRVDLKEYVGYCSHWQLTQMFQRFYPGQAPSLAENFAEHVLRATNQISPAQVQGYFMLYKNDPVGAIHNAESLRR
UniProt Q8N9N5: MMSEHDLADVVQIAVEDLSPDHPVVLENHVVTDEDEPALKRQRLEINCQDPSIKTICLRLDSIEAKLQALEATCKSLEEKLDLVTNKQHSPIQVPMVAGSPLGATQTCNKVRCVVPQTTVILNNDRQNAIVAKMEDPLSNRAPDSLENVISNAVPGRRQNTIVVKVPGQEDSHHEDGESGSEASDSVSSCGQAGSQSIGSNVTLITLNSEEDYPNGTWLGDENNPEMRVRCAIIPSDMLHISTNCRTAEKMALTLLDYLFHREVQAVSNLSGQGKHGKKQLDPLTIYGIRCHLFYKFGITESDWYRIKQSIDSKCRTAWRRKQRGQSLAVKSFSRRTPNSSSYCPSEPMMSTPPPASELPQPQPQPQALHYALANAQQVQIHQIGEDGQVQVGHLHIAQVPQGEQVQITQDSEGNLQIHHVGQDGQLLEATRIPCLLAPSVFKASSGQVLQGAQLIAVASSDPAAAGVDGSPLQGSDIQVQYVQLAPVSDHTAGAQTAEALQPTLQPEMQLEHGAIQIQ
UniProt Q13867: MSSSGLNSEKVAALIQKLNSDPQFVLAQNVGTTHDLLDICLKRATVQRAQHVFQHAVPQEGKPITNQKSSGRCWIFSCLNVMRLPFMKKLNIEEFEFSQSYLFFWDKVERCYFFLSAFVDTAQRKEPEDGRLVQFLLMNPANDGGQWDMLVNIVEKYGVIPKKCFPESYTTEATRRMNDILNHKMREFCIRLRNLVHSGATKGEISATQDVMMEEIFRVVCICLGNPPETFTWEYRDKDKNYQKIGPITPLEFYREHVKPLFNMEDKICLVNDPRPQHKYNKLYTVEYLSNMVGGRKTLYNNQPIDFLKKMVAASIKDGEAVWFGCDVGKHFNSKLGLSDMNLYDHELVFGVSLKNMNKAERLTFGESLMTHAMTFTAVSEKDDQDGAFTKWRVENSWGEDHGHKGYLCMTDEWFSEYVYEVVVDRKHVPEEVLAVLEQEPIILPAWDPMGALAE
UniProt P53004: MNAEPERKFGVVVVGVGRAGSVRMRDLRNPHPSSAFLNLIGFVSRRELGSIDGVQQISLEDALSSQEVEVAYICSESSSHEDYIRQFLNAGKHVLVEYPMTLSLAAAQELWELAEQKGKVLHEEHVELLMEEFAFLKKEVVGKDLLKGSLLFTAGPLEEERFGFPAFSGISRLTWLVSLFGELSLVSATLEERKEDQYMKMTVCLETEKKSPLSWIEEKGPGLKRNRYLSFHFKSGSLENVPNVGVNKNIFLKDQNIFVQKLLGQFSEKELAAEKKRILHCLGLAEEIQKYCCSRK
UniProt Q5VW32: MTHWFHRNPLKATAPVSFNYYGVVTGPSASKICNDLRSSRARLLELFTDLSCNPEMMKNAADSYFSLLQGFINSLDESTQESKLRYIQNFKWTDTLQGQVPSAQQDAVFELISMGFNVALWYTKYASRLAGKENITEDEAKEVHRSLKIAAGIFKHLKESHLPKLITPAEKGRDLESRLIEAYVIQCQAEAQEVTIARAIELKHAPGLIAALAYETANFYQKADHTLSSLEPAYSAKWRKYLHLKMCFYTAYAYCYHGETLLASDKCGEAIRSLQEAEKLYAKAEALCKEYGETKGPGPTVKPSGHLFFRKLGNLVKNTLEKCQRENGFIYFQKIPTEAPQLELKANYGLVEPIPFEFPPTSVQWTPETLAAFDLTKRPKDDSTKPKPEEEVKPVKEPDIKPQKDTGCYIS
UniProt P56945: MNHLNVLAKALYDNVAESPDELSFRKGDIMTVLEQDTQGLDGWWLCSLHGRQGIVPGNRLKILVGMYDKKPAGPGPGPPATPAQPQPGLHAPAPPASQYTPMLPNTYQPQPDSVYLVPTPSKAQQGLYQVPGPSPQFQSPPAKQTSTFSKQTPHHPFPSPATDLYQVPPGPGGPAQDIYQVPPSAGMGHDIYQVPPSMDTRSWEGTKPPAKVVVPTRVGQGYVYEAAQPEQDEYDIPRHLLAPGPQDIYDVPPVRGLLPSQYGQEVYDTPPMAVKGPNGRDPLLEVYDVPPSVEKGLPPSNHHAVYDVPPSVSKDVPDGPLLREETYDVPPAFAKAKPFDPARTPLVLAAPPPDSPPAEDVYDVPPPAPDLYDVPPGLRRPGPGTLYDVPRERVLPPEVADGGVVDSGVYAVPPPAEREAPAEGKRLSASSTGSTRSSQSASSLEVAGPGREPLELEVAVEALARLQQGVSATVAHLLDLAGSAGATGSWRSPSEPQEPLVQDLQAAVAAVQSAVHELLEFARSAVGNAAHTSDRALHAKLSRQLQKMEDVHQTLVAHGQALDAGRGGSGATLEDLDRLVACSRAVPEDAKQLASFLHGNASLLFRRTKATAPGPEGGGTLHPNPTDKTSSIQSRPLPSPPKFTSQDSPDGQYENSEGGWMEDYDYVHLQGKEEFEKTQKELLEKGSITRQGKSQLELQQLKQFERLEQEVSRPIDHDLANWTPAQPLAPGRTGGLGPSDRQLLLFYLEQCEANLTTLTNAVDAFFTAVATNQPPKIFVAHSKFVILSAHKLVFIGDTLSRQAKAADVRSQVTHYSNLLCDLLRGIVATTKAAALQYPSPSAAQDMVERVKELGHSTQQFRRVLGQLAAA
UniProt Q99933: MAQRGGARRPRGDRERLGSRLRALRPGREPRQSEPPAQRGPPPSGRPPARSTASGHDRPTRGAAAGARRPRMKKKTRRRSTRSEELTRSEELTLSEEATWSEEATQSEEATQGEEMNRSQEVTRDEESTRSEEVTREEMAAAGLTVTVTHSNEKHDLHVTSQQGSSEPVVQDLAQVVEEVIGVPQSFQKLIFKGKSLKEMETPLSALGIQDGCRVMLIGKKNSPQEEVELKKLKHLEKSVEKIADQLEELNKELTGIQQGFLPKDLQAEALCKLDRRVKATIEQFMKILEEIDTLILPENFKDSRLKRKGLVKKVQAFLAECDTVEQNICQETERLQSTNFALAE
UniProt P35613: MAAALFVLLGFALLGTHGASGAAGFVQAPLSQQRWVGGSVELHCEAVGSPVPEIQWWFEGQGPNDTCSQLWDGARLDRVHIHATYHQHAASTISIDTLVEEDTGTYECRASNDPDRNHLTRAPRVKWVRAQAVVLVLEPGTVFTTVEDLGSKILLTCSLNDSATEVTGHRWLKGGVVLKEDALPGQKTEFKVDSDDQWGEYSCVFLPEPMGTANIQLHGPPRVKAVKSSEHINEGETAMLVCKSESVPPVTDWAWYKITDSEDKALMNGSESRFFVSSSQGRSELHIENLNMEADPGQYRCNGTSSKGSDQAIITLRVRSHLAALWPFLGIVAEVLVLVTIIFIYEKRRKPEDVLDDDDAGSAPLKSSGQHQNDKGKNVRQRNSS
UniProt Q9UL45: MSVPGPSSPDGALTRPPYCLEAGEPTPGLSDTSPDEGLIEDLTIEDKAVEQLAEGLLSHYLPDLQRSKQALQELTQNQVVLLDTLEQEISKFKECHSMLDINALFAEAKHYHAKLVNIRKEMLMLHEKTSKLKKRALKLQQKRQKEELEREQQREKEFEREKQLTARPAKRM
UniProt O15155: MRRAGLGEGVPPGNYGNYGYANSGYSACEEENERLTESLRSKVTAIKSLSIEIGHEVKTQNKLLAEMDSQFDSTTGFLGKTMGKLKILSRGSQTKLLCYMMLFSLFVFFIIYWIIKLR
UniProt Q8TDN6: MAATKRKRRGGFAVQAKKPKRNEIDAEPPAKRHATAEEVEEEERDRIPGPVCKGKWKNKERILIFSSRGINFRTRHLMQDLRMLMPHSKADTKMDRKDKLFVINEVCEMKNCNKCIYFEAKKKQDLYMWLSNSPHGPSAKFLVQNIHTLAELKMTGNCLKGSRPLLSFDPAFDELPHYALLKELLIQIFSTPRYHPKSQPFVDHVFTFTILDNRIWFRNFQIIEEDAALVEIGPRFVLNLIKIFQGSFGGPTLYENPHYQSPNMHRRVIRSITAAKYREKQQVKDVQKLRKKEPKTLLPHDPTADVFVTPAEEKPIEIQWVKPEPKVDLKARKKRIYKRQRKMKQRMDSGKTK
UniProt Q8WUW1: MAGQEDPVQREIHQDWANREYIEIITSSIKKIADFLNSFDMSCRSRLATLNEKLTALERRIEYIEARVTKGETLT

Experiments:
Assay in all cases: log2 fold change, soluble protein after heating vs DMSO (PISA); higher = thermal stabilisation; K562 lysate, 10 uM; active = over 0.2 and 3.5 SD of the protein, either way, in both replicates (recomputed)
[1] = compound: CCCS(=O)(=O)Nc1ccc(F)c(C(=O)c2c[nH]c3ncc(-c4ccc(Cl)cc4)cc23)c1F [vemurafenib]
How it was run: (§1)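 Pellets of K562 cells were dounce-homogenised in PBS pH 7.4 with 1 mM MgCl2, and the crude extract was held at 1 mg/mL protein for a 30 min treatment with 10 μM compound. Aliquots were heated for 3 min over 48°C-58°C and pooled before NP-40 was added to 0.5% at 4°C. The supernatant from 21,000xg for 90 min was quantified by TMTpro 16plex LC-MS/MS with channel sums equalised. Values are reported from duplicates as log-two fold change in thermal stability relative to solvent controls.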

[2] = compound: CCCS(=O)(=O)Nc1ccc(F)c(C(=O)c2c[nH]c3ncc(Cl)cc23)c1F
How it was run: as §1

[3] = compound: CCN(CCCOc1ccc2c(Nc3cc(CC(=O)Nc4cccc(F)c4)[nH]n3)ncnc2c1)CCOP(=O)(O)O [barasertib]
How it was run: as §1

[4] = compound: CC[C@@H]1C(=O)N(C)c2cnc(Nc3ccc(C(=O)NC4CCN(C)CC4)cc3OC)nc2N1C1CCCC1
How it was run: as §1

[5] = compound: CC[C@@H]1C(=O)N(C)c2cnc(Nc3ccc(C(=O)N[C@H]4CC[C@H](N5CCN(CC6CC6)CC5)CC4)cc3OC)nc2N1C(C)C [volasertib]
How it was run: as §1

[6] = compound: CCn1c(C(=O)N(C2CC2)C2CC2)cc2c3c(ncn3C)c(Nc3cc(C)n(C)n3)nc21
How it was run: as §1

[7] = compound: CCn1cc(-c2ccnc3[nH]c(-c4cccc(CN(C)C)c4)cc23)c(-c2ccc(NC(=O)N(C)C)cc2)n1
How it was run: as §1

[8] = compound: CN1CCC(CNc2ccc3ncc(-c4cccc(OC(F)(F)F)c4)n3n2)CC1
How it was run: as §1

[9] = compound: CN1CCN(CCOc2cc(OC3CCOCC3)c3c(Nc4c(Cl)ccc5c4OCO5)ncnc3c2)CC1 [saracatinib]
How it was run: as §1

[10] = compound: CN1CCN(c2nc(C3=C(c4c[nH]c5ccccc45)C(=O)NC3=O)c3ccccc3n2)CC1 [sotrastaurin]
How it was run: as §1

[11] = compound: CN1CC[C@H](c2c(O)cc(O)c3c(=O)cc(-c4ccccc4Cl)oc23)[C@H](O)C1 [alvocidib]
How it was run: as §1

[12] = compound: CN1CCc2c(c3ccccc3n2Cc2ccc(C(=O)NO)cc2)C1 [Tubastatin A]
How it was run: as §1

[13] = compound: CNC(=O)C1=CC=CC=C1NC2=NC(=NC=C2Cl)NC3=C(C=C(C=C3)N4CCOCC4)OC
How it was run: as §1

[14] = compound: CNC(=O)c1ccc(Nc2ncc(C(F)(F)F)c(NCc3nccnc3N(C)S(C)(=O)=O)n2)cc1 [defactinib]
How it was run: as §1

[15] = compound: CNc1nc(-c2ccc3c(N)n[nH]c3c2)cc(N2C[C@@H](C(=O)NC3CCCCC3)CC[C@H]2C)n1
How it was run: as §1

[16] = compound: COC(=O)N[C@@H](C)CNc1nccc(-c2cn(C(C)C)nc2-c2cc(Cl)cc(NS(C)(=O)=O)c2F)n1 [encorafenib]
How it was run: as §1

[17] = compound: COC(=O)[C@H](CCSC)NC(=O)C1=C(C=C(C=C1)NC[C@H](CS)N)C2=CC=CC=C2
How it was run: as §1

[18] = compound: COc1cc(Nc2ncc3c(n2)-c2ccc(Cl)cc2C(c2c(F)cccc2OC)=NC3)ccc1C(=O)O [alisertib]
How it was run: as §1

[19] = compound: COc1cc2nc(-c3cc(F)ccc3O)nc(N[C@@H]3CNC[C@H]3C(C)(C)O)c2cc1OC
How it was run: as §1

[20] = compound: COc1cc2ncnc(Nc3ccc(F)c(Cl)c3)c2cc1OCCCN1CCOCC1 [gefitinib]
How it was run: as §1

Measured: log2 fold change

BCL2L12 (UniProt Q9HB09)
inactive: [1] -0.032 | [2] 0.08 | [3] 0.166 | [4] 0.013 | [5] -0.06 | [6] 0.087 | [7] 0.018 | [8] 0.116 | [9] 0.057 | [10] -0.007 | [11] 0.012 | [12] 0.016 | [13] -0.087 | [14] 0.113 | [15] -0.059 | [16] -0.207 | [17] 0.023 | [18] 0.008 | [19] 0.1 | [20] -0.062

BAG3 (UniProt O95817)
inactive: [1] 0.004 | [2] 0.012 | [3] -0.049 | [4] 0.043 | [5] 0.025 | [6] 0.018 | [7] 0.131 | [8] 0.002 | [9] 0.018 | [10] -0.022 | [11] 0.004 | [12] 0.024 | [13] 0.003 | [14] -0.052 | [15] 0.031 | [16] 0.003 | [17] -0.018 | [18] 0.016 | [19] 0.003 | [20] -0.022

BCAP31 isoform 2 (UniProt P51572)
inactive: [1] -0.003 | [2] -0.015 | [3] -0.027 | [4] 0.057 | [5] 0.042 | [6] 0.011 | [7] -0.038 | [8] 0.02 | [9] 0.011 | [10] -0.012 | [11] -0.03 | [12] 0.038 | [13] 0.018 | [14] -0.013 | [15] 0.026 | [16] -0.017 | [17] -0.039 | [18] 0.014 | [19] 0.022 | [20] 0.015

BRD2 isoform 2 (UniProt P25440)
inactive: [1] 0.033 | [2] -0.153 | [3] -0.053 | [5] 0.369 | [6] 0.042 | [8] -0.066 | [9] -0.047 | [10] -0.1 | [11] 0.06 | [12] 0.002 | [13] 0.059 | [14] -0.187 | [15] 0.068 | [16] 0.084 | [17] -0.118 | [18] 0 | [19] 0.019 | [20] -0.009
active: [4] 0.548 | [7] 0.617

BCS1L (UniProt Q9Y276)
inactive: [1] 0.057 | [2] 0.021 | [3] 0.032 | [4] 0 | [5] 0.027 | [6] 0.227 | [7] 0.176 | [8] -0.051 | [9] -0.001 | [10] -0.101 | [11] -0.034 | [12] 0.081 | [13] 0.011 | [14] -0.034 | [15] -0.161 | [16] 0 | [17] 0.109 | [18] 0.021 | [19] 0.018 | [20] 0.017

BANP (UniProt Q8N9N5)
inactive: [1] -0.076 | [2] 0.088 | [3] -0.04 | [4] 0.03 | [5] -0.05 | [6] -0.1 | [7] -0.001 | [8] -0.106 | [9] 0.039 | [10] 0.006 | [11] 0.001 | [12] -0.07 | [13] -0.002 | [14] 0.087 | [15] 0.016 | [16] -0.028 | [17] 0.054 | [18] 0.052 | [19] 0.009 | [20] -0.018

BLMH (UniProt Q13867)
inactive: [1] -0.011 | [2] -0.013 | [3] -0.051 | [4] -0.018 | [5] 0.007 | [6] 0.043 | [7] -0.067 | [8] 0.09 | [9] -0.011 | [10] 0.048 | [11] -0.031 | [12] 0.006 | [13] 0.005 | [14] -0.015 | [15] -0.024 | [16] -0.029 | [17] 0.037 | [18] 0.013 | [19] -0.039 | [20] 0.03

BLVRA (UniProt P53004)
inactive: [1] 0.007 | [2] 0.008 | [3] -0.024 | [4] -0.041 | [5] -0.014 | [6] -0.013 | [7] 0.045 | [8] -0.029 | [9] -0.019 | [10] 0.004 | [11] 0.004 | [12] 0.026 | [13] 0.011 | [14] -0.032 | [15] -0.013 | [16] -0.034 | [17] -0.038 | [18] 0.023 | [19] 0.005 | [20] -0.033

BROX (UniProt Q5VW32)
inactive: [1] 0.009 | [2] 0.002 | [3] 0.023 | [4] -0.121 | [5] -0.004 | [6] 0.015 | [7] 0.035 | [8] -0.055 | [9] 0.01 | [10] -0.016 | [11] 0.018 | [12] 0.008 | [13] -0.019 | [14] -0.011 | [15] -0.07 | [16] -0.061 | [17] -0.035 | [18] 0.016 | [19] -0.005 | [20] -0.03

BCAR1 isoform 6 (UniProt P56945)
inactive: [1] 0.038 | [2] 0.018 | [3] 0.015 | [4] -0.065 | [5] -0.018 | [6] -0.003 | [7] 0.064 | [8] -0.012 | [9] 0.032 | [10] -0.038 | [11] 0.074 | [12] -0.009 | [13] 0.009 | [14] -0.032 | [15] 0.012 | [16] 0.018 | [17] 0.014 | [18] 0.009 | [19] 0.08 | [20] 0.065

BAG1 (UniProt Q99933)
inactive: [1] -0.025 | [2] 0.01 | [3] 0.017 | [4] 0.013 | [5] 0.004 | [6] -0.023 | [7] -0.081 | [8] 0.153 | [9] -0.015 | [10] -0.04 | [11] -0.076 | [12] 0.043 | [13] 0.005 | [14] -0.013 | [15] 0.392 | [16] -0.015 | [17] 0.012 | [18] -0.012 | [19] 0.008 | [20] -0.018

BSG (UniProt P35613)
inactive: [1] 0.008 | [2] -0.054 | [3] -0.016 | [4] -0.037 | [5] 0.033 | [6] 0.039 | [7] 0.045 | [8] -0.045 | [9] -0.002 | [10] -0.005 | [11] 0.017 | [12] 0.022 | [13] -0.023 | [14] -0.034 | [15] -0.018 | [16] 0.033 | [17] -0.041 | [18] 0.018 | [19] -0.001 | [20] 0.029

Copied from the results shown (4 entries):
BLVRA (UniProt P53004)
inactive: [1] 0.007 | [2] 0.008 | [3] -0.024 | [4] -0.041 | [5] -0.014 | [6] -0.013 | [7] 0.045 | [8] -0.029 | [9] -0.019 | [10] 0.004 | [11] 0.004 | [12] 0.026 | [13] 0.011 | [14] -0.032 | [15] -0.013 | [16] -0.034 | [17] -0.038 | [18] 0.023 | [19] 0.005 | [20] -0.033

BROX (UniProt Q5VW32)
inactive: [1] 0.009 | [2] 0.002 | [3] 0.023 | [4] -0.121 | [5] -0.004 | [6] 0.015 | [7] 0.035 | [8] -0.055 | [9] 0.01 | [10] -0.016 | [11] 0.018 | [12] 0.008 | [13] -0.019 | [14] -0.011 | [15] -0.07 | [16] -0.061 | [17] -0.035 | [18] 0.016 | [19] -0.005 | [20] -0.03

BCAR1 isoform 6 (UniProt P56945)
inactive: [1] 0.038 | [2] 0.018 | [3] 0.015 | [4] -0.065 | [5] -0.018 | [6] -0.003 | [7] 0.064 | [8] -0.012 | [9] 0.032 | [10] -0.038 | [11] 0.074 | [12] -0.009 | [13] 0.009 | [14] -0.032 | [15] 0.012 | [16] 0.018 | [17] 0.014 | [18] 0.009 | [19] 0.08 | [20] 0.065

BAG1 (UniProt Q99933)
inactive: [1] -0.025 | [2] 0.01 | [3] 0.017 | [4] 0.013 | [5] 0.004 | [6] -0.023 | [7] -0.081 | [8] 0.153 | [9] -0.015 | [10] -0.04 | [11] -0.076 | [12] 0.043 | [13] 0.005 | [14] -0.013 | [15] 0.392 | [16] -0.015 | [17] 0.012 | [18] -0.012 | [19] 0.008 | [20] -0.018

The listing continues.

BLOC1S6 (UniProt Q9UL45)
inactive: [1] 0.005 | [2] 0.007 | [3] -0.012 | [4] 0.013 | [5] 0.032 | [6] 0.043 | [7] 0.048 | [8] 0.009 | [9] -0.034 | [10] -0.06 | [11] -0.028 | [12] 0.033 | [13] 0.051 | [14] 0.014 | [15] 0.082 | [16] 0.147 | [17] 0.056 | [18] -0.22 | [19] -0.036 | [20] 0.047

BET1 (UniProt O15155)
inactive: [1] 0.107 | [2] -0.012 | [3] 0.028 | [4] -0.019 | [5] 0.032 | [6] -0.021 | [7] 0.044 | [8] -0.009 | [9] 0.031 | [10] -0.033 | [11] 0.07 | [12] -0.038 | [13] 0.033 | [14] 0.058 | [15] 0.027 | [16] -0.062 | [18] -0.023 | [19] -0.022 | [20] -0.045
active: [17] -0.214

BRIX1 (UniProt Q8TDN6)
inactive: [1] -0.025 | [2] 0.01 | [3] 0.011 | [4] -0.014 | [5] -0.009 | [6] 0.008 | [7] -0.033 | [8] 0.02 | [9] 0.004 | [10] -0.005 | [11] 0.009 | [12] -0.013 | [13] 0.008 | [14] 0.014 | [15] 0.002 | [16] 0.027 | [17] -0.039 | [18] -0.002 | [19] -0.008 | [20] -0.043

BRK1 isoform 2 (UniProt Q8WUW1)
inactive: [1] -0.006 | [2] -0.023 | [3] -0.039 | [4] 0.037 | [5] 0.06 | [6] 0.078 | [7] 0.042 | [8] -0.068 | [9] 0.011 | [10] -0.006 | [11] 0.097 | [12] 0.005 | [13] 0.044 | [14] 0.141 | [15] -0.007 | [16] -0.009 | [17] -0.016 | [18] 0.003 | [19] -0.052 | [20] -0.031
